In ChEMBL document CHEMBL1130383, “Anesthetic activity of novel water-soluble 2 beta-morpholinyl steroids and their modulatory effects at GABAA receptors” (J Med Chem, 1997):
pIC50: −log10 of the molar value.

Target: GABA-A receptor; anion channel
Test: The concentration required to inhibit 50% of binding of [35S]TBPS to Gamma-aminobutyric acid A receptor to rat whole brain membranes.
Assay type: cell membranes

CC(=O)[C@H]1CC[C@H]2[C@@H]3CC[C@H]4C[C@H](O)CC[C@]4(C)[C@H]3C(=O)C[C@]12C [ALFAXALONE] was tested, and the pIC50 was 6.27.
